PubChem BioAssay AID588453 (National Center for Advancing Translational Sciences (NCATS), 2011)
Values joined by “and” are separate entries in the source; they are usually repeats but may differ in a detail not shown here. Identical values can stand only once. What follows is the remainder of the data, with few or none of the hits. Inconclusive results are not listed. Active and inactive are the calls of the source. Calls follow the shape of the dose curve; as a rule, active = well fitted inhibition curve with a large enough effect; inconclusive = small, poorly fitted or top-dose-only effect; inactive = no such curve, though single readings can be large or run the other way.

Chains of the proteins cited; added tags and fusions are not shown.
UniProt O89049, whole entry, looked up: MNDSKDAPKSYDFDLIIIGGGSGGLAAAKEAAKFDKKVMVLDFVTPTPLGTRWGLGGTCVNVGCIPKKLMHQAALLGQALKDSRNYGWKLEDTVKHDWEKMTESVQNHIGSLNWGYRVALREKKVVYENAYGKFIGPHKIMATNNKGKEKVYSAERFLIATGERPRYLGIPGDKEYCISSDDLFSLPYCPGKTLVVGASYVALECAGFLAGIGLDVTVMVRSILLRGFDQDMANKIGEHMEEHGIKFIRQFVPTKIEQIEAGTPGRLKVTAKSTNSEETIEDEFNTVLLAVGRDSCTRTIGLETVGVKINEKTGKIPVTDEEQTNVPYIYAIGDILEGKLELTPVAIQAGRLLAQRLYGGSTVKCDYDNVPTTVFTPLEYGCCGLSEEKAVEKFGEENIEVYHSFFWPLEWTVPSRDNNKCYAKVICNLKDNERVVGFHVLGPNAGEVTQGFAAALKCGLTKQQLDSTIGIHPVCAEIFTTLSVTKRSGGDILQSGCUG

Biological target: Thioredoxin reductase 1, cytoplasmic (Rattus norvegicus) (UniProt O89049)
Assay: qHTS Assay for Inhibitors of Mammalian Selenoprotein Thioredoxin Reductase 1 (TrxR1): qHTS; also: nearly all actives have a fitted effect of over 65% in size
Settings: recombinant rTrxR1, NADPH fluorescence consumption, selenite substrate; at 57.1 µM (top of the series) unless noted
From the text: The selenoprotein thioredoxin reductase (TrxR; EC 1.8.1.9) is a FAD containing homodimeric pyridine nucleotide-disulfide oxidoreductase with many cellular roles. Together with NADPH and its prime substrate thioredoxin (Trx), the enzyme forms the core of the Trx system. The mammalian Trx system exerts a wide spectrum of functions including redox regulation, antioxidant defense, regulation of transcription factors as well as support of cell growth and replication. Many of these functions involve the reduction of Trx, which may subsequently reduce a number of different substrates including ribonucleotide reductase, peroxiredoxins or NFkB. […]
This BioAssay is a validation of an NADPH fluorescence-based, dual-purpose qHTS rTrxR1 assay designed to find potential inhibitors and substrates of rTrxR1. […]
Assay protocol: 2 uL of reagents (buffer in column 4 as negative control and 90 nM rTrxR1 in columns 1-3 and 5-48) were dispensed into Greiner black solid-bottom 1,536-well assay plates, followed by 1 uL of NADPH (400 uM final concentration) to each well. […] The plate was immediately transferred to a ViewLux high-throughput CCD imager (PerkinElmer), wherein kinetic measurements of NADPH fluorescence (Ex 340 nm, Em 450 nm) were acquired (8 minute kinetic read, see Table 1). […]
% is scaled to controls: 0 for no effect and ±100 for the full control effect.

SMILES | activity change, negative = inhibition
CN1[C@@H]2CC[C@H]1CC(OC(=O)C(O)c1ccccc1)C2 (some centres not stated) | inactive: 28.6% [at 114 µM]
CN1C2CCC1CC(OC(=O)C(O)c1ccccc1)C2 (configuration not stated) | inactive: 53.3% and inactive: -3.55%
